Binding data for one substance are collected here from article PMC9569985.

The chains behind the UniProt entries cited, without tags or fusion partners.
UniProt Q9R012: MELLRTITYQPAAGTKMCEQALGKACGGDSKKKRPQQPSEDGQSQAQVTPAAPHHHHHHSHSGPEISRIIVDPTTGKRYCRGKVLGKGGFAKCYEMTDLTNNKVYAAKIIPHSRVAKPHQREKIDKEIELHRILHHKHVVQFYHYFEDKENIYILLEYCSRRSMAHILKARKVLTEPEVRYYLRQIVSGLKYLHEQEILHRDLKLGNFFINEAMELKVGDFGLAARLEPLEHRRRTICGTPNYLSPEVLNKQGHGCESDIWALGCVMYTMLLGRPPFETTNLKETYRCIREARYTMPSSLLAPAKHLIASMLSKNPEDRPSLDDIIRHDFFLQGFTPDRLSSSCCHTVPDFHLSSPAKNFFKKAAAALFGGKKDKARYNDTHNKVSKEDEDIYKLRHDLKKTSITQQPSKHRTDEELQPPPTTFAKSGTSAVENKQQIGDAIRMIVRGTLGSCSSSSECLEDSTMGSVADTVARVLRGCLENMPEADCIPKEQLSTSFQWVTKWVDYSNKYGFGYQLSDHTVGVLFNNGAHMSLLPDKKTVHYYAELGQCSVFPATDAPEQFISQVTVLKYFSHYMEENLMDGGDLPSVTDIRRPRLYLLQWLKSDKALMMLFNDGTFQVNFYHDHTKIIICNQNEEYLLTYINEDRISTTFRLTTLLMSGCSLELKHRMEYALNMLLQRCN

No constants are given. Whether binding was seen depends on the method and setting. Binding seen in cells or lysates may run through a third protein. Some entries that bind do so weakly or less than the wild type. Where a sequence is shown, tags or fusion partners need not be part of it.

The target of this assay is T1, FLAG-HSPB5 (UniProt P23927).
T1 sequence: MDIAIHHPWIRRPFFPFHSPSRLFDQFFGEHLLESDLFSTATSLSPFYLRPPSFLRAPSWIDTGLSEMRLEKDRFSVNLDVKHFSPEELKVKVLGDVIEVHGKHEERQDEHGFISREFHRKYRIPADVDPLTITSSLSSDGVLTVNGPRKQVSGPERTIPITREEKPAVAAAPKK
Put plainly: co-IP; FLAG-HSPB5 overexpressed in L6 cells, 5 µM MG132 for 24 h; lysate (50 mM Tris-HCl pH 7.5, 150 mM NaCl, 0.5% Nonidet-P40) immunoprecipitated with anti-tag antibody-conjugated beads, Western blot for endogenous PLK2; the paper calls it a pull-down assay.

Regarding “Endogenous PLK2 of L6 cells (from UniProt Q9R012 1-682) (enzyme)”, the binding entry is on record as “binds”.
